{"source": "PubChem BioAssay AID504744 | Drosophila RNAi Screening Center – 2011", "assay": "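Uncover factors, including feedback loops, that control dAkt activation in fly cells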 (primary screen)", "cells": "Drosophila Kc167 cells", "reagent": "long dsRNA against Drosophila genes, 250 ng dsRNA per well of a 384-well plate", "timing": "3 days of knock-down, then overnight serum-free starvation before stimulation", "conditions": "bovine insulin at 387 nM for 10 minutes after 12 h without serum", "measurement": "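Per-well phospho-dAkt level from an in-cell fluorescent antibody stain, divided by a DNA-dye signal; log2 residuals turned into z-scores that take cell number into account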", "hit rule": "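Hit in the insulin screen when the two-replicate mean z-score is more extreme than plus or minus 2.5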", "note": "The deposit covers about 23,000 reagents; shown is an unselected part of those that have a named target and a result. Over the whole deposit, 98 (0.43%) are marked active. 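Only hit calls are given; the phospho-dAkt signals, z-scores and hit direction were not deposited.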 A plus sign joins genes that one reagent is predicted to hit."}
{"gene knocked down":"Ir56a","amplicon":"DRSC05776","Outcome":"inactive"}
{"gene knocked down":"CG18731","amplicon":"DRSC15377","Outcome":"inactive"}
{"gene knocked down":"CG13123","amplicon":"DRSC02219","Outcome":"inactive"}
{"gene knocked down":"CG4701","amplicon":"DRSC01952","Outcome":"inactive"}
{"gene knocked down":"CG14982","amplicon":"DRSC08440","Outcome":"inactive"}
{"gene knocked down":"Zw10","amplicon":"DRSC18793","Outcome":"inactive"}
{"gene knocked down":"Tsp42Ef","amplicon":"DRSC06191","Outcome":"inactive"}
{"gene knocked down":"CG13135","amplicon":"DRSC02232","Outcome":"inactive"}
{"gene knocked down":"Tbc1d15-17","amplicon":"DRSC00313","Outcome":"inactive"}
{"gene knocked down":"Mnat9","amplicon":"DRSC14325","Outcome":"inactive"}
{"gene knocked down":"bcn92","amplicon":"DRSC18741","Outcome":"inactive"}
{"gene knocked down":"CG34008","amplicon":"DRSC13428","Outcome":"inactive"}
{"gene knocked down":"Tgt","amplicon":"DRSC00672","Outcome":"inactive"}
{"gene knocked down":"osy","amplicon":"DRSC14903","Outcome":"inactive"}
{"gene knocked down":"osy","amplicon":"DRSC15979","Outcome":"inactive"}
{"gene knocked down":"osy","amplicon":"DRSC15981","Outcome":"inactive"}
{"gene knocked down":"Mrp5","amplicon":"DRSC15597","Outcome":"inactive"}
{"gene knocked down":"Mrp5","amplicon":"DRSC15598","Outcome":"inactive"}
{"gene knocked down":"Golgin245","amplicon":"DRSC04374","Outcome":"inactive"}
{"gene knocked down":"Golgin245","amplicon":"DRSC22012","Outcome":"inactive"}
{"gene knocked down":"magu","amplicon":"DRSC06832","Outcome":"inactive"}
{"gene knocked down":"Rlip","amplicon":"DRSC16828","Outcome":"inactive"}
{"gene knocked down":"Dnah3","amplicon":"DRSC08130","Outcome":"inactive"}
{"gene knocked down":"Dnah3","amplicon":"DRSC08513","Outcome":"inactive"}
{"gene knocked down":"CG8814","amplicon":"DRSC00707","Outcome":"inactive"}
{"gene knocked down":"Mst57Dc","amplicon":"DRSC16745","Outcome":"inactive"}
{"gene knocked down":"Nup58","amplicon":"DRSC16235","Outcome":"inactive"}
{"gene knocked down":"Rab9","amplicon":"DRSC03281","Outcome":"inactive"}
{"gene knocked down":"PIG-H","amplicon":"DRSC14856","Outcome":"inactive"}
{"gene knocked down":"CG5805","amplicon":"DRSC15878","Outcome":"inactive"}
{"gene knocked down":"ppk25","amplicon":"DRSC04973","Outcome":"inactive"}
{"gene knocked down":"Trxr1","amplicon":"DRSC18668","Outcome":"inactive"}
{"gene knocked down":"Trxr1","amplicon":"DRSC22293","Outcome":"inactive"}
{"gene knocked down":"Atg2","amplicon":"DRSC08273","Outcome":"inactive"}
{"gene knocked down":"CG15784","amplicon":"DRSC18090","Outcome":"inactive"}
{"gene knocked down":"CG13086","amplicon":"DRSC02190","Outcome":"inactive"}
{"gene knocked down":"CG9853","amplicon":"DRSC12343","Outcome":"inactive"}
{"gene knocked down":"CG9853","amplicon":"DRSC22840","Outcome":"inactive"}
{"gene knocked down":"Pfk","amplicon":"DRSC07506","Outcome":"inactive"}
{"gene knocked down":"Nplp4","amplicon":"DRSC00391","Outcome":"inactive"}
{"gene knocked down":"CG4661","amplicon":"DRSC19910","Outcome":"inactive"}
{"gene knocked down":"CG6428","amplicon":"DRSC18402","Outcome":"inactive"}
{"gene knocked down":"RpS19b","amplicon":"DRSC15773","Outcome":"inactive"}
{"gene knocked down":"tutl","amplicon":"DRSC00441","Outcome":"inactive"}
{"gene knocked down":"tutl","amplicon":"DRSC00442","Outcome":"inactive"}
{"gene knocked down":"tutl","amplicon":"DRSC00443","Outcome":"inactive"}
{"gene knocked down":"lncRNA:CR32368","amplicon":"DRSC08899","Outcome":"inactive"}
{"gene knocked down":"CG18467","amplicon":"DRSC06758","Outcome":"inactive"}
{"gene knocked down":"SWIP","amplicon":"DRSC19540","Outcome":"inactive"}
{"gene knocked down":"CG17803","amplicon":"DRSC15275","Outcome":"inactive"}
{"gene knocked down":"CG17803","amplicon":"DRSC22811","Outcome":"inactive"}
{"gene knocked down":"ATPsynF","amplicon":"DRSC04482","Outcome":"inactive"}
{"gene knocked down":"Paf-AHalpha","amplicon":"DRSC20267","Outcome":"inactive"}
{"gene knocked down":"Gyc76C + CG42637","amplicon":"DRSC11180","Outcome":"inactive"}
{"gene knocked down":"Sec3","amplicon":"DRSC10384","Outcome":"inactive"}
{"gene knocked down":"CG5742","amplicon":"DRSC06949","Outcome":"inactive"}
{"gene knocked down":"Polr3I","amplicon":"DRSC19922","Outcome":"inactive"}

4 of these entries, reformatted.
| gene knocked down | amplicon | Outcome |
| --- | --- | --- |
| PIG-H | DRSC14856 | inactive |
| CG5805 | DRSC15878 | inactive |
| ppk25 | DRSC04973 | inactive |
| Trxr1 | DRSC18668 | inactive |
